From publication PMC9376731

T1: fidgetin (mouse (endogenous in mouse oocytes)) (UniProt Q9ERZ6)
T1 sequence: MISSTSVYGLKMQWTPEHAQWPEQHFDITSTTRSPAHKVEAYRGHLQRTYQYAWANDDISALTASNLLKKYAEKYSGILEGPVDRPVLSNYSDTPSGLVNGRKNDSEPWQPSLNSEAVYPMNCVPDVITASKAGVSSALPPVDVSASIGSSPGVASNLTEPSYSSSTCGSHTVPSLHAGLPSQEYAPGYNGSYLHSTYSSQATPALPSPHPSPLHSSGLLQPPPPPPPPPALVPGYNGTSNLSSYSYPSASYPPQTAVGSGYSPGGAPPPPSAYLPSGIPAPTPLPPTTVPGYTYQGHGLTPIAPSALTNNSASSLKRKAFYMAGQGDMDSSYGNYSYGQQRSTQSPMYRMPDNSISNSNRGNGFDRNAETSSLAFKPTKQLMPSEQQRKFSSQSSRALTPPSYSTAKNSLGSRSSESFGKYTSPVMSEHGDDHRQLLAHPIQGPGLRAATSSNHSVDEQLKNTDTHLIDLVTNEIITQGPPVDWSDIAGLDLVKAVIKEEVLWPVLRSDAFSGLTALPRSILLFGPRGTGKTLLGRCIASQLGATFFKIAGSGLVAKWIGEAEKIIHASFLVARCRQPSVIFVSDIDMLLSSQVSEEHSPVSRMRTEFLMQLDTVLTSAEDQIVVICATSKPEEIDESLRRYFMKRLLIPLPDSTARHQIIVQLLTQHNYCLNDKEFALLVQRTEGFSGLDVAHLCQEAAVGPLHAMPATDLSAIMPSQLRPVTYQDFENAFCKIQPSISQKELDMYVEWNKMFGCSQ

B1: ZP3 (protein, UniProt P10761 23-351)
chain: QTLWLLPGGTPTPVGSSSPVKVECLEAELVVTVSRDLFGTGKLVQPGDLTLGSEGCQPRVSVDTDVVRFNAQLHECSSRVQMTKDALVYSTFLLHDPRPVSGLSILRTNRVEVPIECRYPRQGNVSSHPIQPTWVPFRATVSSEEKLAFSLRLMEENWNTEKSAPTFHLGEVAHLQAEVQTGSHLPLQLFVDHCVATPSPLPDPNSSPYHFIVDFHGCLVDGLSESFSAFQVPRPRPETLQFTVDVFHFANSSRNTLYITCHLKVAPANQIPDKLNKACSFNKTSQSWLPVEGDADICDCCSHGNCSNSSSSQFQIHGPRQWSKLVSRN
B2: ZP1 (protein, UniProt Q62005 21-546)
chain: QRLHLEPGFEYSYDCGVRGMQLLVFPRPNQTVQFKVLDEFGNRFEVNNCSICYHWVTSEAQEHTVFSADYKGCHVLEKDGRFHLRVFIQAVLPNGRVDIAQDVTLICPKPDHTVTPDPYLAPPTTPEPFTPHAFALHPIPDHTLAGSGHTGLTTLYPEQSFIHPTPAPPSLGPGPAGSTVPHSQWGTLEPWELTELDSVGTHLPQERCQVASGHIPCMVNGSSKETCQQAGCCYDSTKEEPCYYGNTVTLQCFKSGYFTLVMSQETALTHGVLLDNVHLAYAPNGCPPTQKTSAFVVFHVPLTLCGTAIQVVGEQLIYENQLVSDIDVQKGPQGSITRDSAFRLHVRCIFNASDFLPIQASIFSPQPPAPVTQSGPLRLELRIATDKTFSSYYQGSDYPLVRLLREPVYVEVRLLQRTDPSLVLVLHQCWATPTTSPFEQPQWPILSDGCPFKGDNYRTQVVAADREALPFWSHYQRFTITTFMLLDSSSQNALRGQVYFFCSASACHPLGSDTCSTTCDSGIARR
B3: fidgetin-like 1 (protein, UniProt Q8BPY9 1-683)
chain: METSSSMSVETTRSVQVDEWQKNYCVVTSSICTPKQKADAYRALLLHIQYAYANSEISQVFATNLFKRYTEKYSAIIDSDNVVTGLNNYAESIFALAGSRQADSNKWQSGLSIDNVFKMSCVQEMMQAGKKFEESLLEPADASVVLCKEPTAFEVPQLSVCGGSEDADILSSSGHDTDKTQAIPGSSLRCSPFQSARLPKETNTTKTCLTSSTSLGESATAAFHMTPLFGNTEKDTQSFPKTSTGLNMFLSNLSCVPSGCENPQERKAFNDSDIIDILSNPTLNKAPSKTEDRGRREDNSLPTFKTAKEQLWVDQKKKGHQSQHTSKSSNGVMKKSLGAGRSRGIFGKFVPPVSNKQDGSEQHAKKHKSSRAGSAEPAHLTDDCLKNVEPRMVELIMNEIMDHGPPVHWDDIAGVEFAKATIKEIVVWPMMRPDIFTGLRGPPKGILLFGPPGTGKTLIGKCIASQSGATFFSISASSLTSKWVGEGEKMVRALFAVARCQQPAVIFIDEIDSLLSQRGDGEHESSRRIKTEFLVQLDGATTSSEDRILVVGATNRPQEIDEAARRRLVKRLYIPLPEASARKQIVGNLMSKEQCCLSDEETDLVVQQSDGFSGADMTQLCREASLGPIRSLHAADIATISPDQVRPIAYIDFENAFKTVRPTVSPKDLELYENWNETFGCGK
B4: ZP2 (protein, UniProt P20239 35-633)
chain: VSLPQSENPAFPGTLICDKDEVRIEFSSRFDMEKWNPSVVDTLGSEILNCTYALDLERFVLKFPYETCTIKVVGGYQVNIRVGDTTTDVRYKDDMYHFFCPAIQAETHEISEIVVCRRDLISFSFPQLFSRLADENQNVSEMGWIVKIGNGTRAHILPLKDAIVQGFNLLIDSQKVTLHVPANATGIVHYVQESSYLYTVQLELLFSTTGQKIVFSSHAICAPDLSVACNATHMTLTIPEFPGKLESVDFGQWSIPEDQWHANGIDKEATNGLRLNFRKSLLKTKPSEKCPFYQFYLSSLKLTFYFQGNMLSTVIDPECHCESPVSIDELCAQDGFMDFEVYSHQTKPALNLDTLLVGNSSCQPIFKVQSVGLARFHIPLNGCGTRQKFEGDKVIYENEIHALWENPPSNIVFRNSEFRMTVRCYYIRDSMLLNAHVKGHPSPEAFVKPGPLVLVLQTYPDQSYQRPYRKDEYPLVRYLRQPIYMEVKVLSRNDPNIKLVLDDCWATSSEDPASAPQWQIVMDGCEYELDNYRTTFHPAGSSAAHSGHYQRFDVKTFAFVSEARGLSSLIYFHCSALICNQVSLDSPLCSVTCPASLRS

Each binder was assayed against T1, fidgetin (mouse (endogenous in mouse oocytes)) (assay: affinity purification with mass spectrometry; immunoprecipitation from lysate of 600 mouse oocytes with rabbit anti-fidgetin antibody on protein-A/G beads, beside control rabbit IgG; SDS-PAGE, silver staining, gel regions cut and sent for LC-MS).

binding, binds:
B1
B2
B3
B4

These are yes or no findings as the source states them, for the method shown. Binding seen in cells or lysates may run through a third protein. A yes stands for co-enrichment or nearness to the bait. Other partners may have been found.
